Test results from patent US20060111335A1, “Photoactivated anti-viral and anti-cancer agent” (priority 2002, published 2006).

System: Calf thymus DNA
Experiment: Dark association with DNA, UV-Visible titration (Example XI)
Assay type: binding
Conditions: for Aobserved / [DNA]/Δεapp / Δεapp = εf − εapp / εapp: pH 7, I=0.15
[1] = 344 nm, [DNA] 0, [BISTAP] 2.48E−5
[2] = 344 nm, [DNA] 1.30E−4, [BISTAP] 2.33E−5
[3] = 344 nm, [DNA] 1.70E−4, [BISTAP] 2.28E−5
[4] = 344 nm, [DNA] 2.09E−4, [BISTAP] 2.24E−5
[5] = 344 nm, [DNA] 2.81E−4, [BISTAP] 2.15E−5
[6] = 344 nm, [DNA] 3.16E−4, [BISTAP] 2.11E−5
[7] = 344 nm, [DNA] 4.53E−5, [BISTAP] 2.43E−5

Structure (SMILES): [Cl-].[Cl][Rh+]12([Cl])([N]3C=CC=c4c3c3c(c5nccnc45)=CC=C[N]31)[N]1C=CC=c3c1c1c(c4nccnc34)=CC=C[N]12
- Aobserved [1]: 0.2340
- [DNA]/Δεapp [1]: 0
- Δεapp = εf − εapp [1]: 0
- εapp [1]: 9435
- Aobserved [2]: 0.2146
- [DNA]/Δεapp [2]: 5.78E−7
- Δεapp = εf − εapp [2]: 225
- εapp [2]: 9210
- Aobserved [3]: 0.2109
- [DNA]/Δεapp [3]: 9.19E−7
- Δεapp = εf − εapp [3]: 185
- εapp [3]: 9250
- Aobserved [4]: 0.2066
- [DNA]/Δεapp [4]: 9.86E−7
- Δεapp = εf − εapp [4]: 212
- εapp [4]: 9223
- Aobserved [5]: 0.1976
- [DNA]/Δεapp [5]: 1.152E−6
- Δεapp = εf − εapp [5]: 244
- εapp [5]: 9191
- Aobserved [6]: 0.1940
- [DNA]/Δεapp [6]: 1.311E−6
- Δεapp = εf − εapp [6]: 241
- εapp [6]: 9194
- Aobserved [7]: 0.2265
- [DNA]/Δεapp [7]: 3.97E−7
- Δεapp = εf − εapp [7]: 114
- εapp [7]: 9321
- Δε = εf − εb (from slope of [DNA]/Δεapp versus [DNA]): 294
- εb, extinction coefficient of the DNA-bound form (εb = εf − Δε): 9141

Structure (SMILES): CC1=C[N]2c3c4c(ccc3=C1C)=C(C)C(C)=C[N]4[Rh+]21([Cl])([Cl])[N]2C=C(C)C(C)=c3ccc4c(c32)[N]1C=C(C)C=4C.[Cl-] [OCTBP, cis-dichlorobis(3,4,7,8-tetramethyl-1,10-phenanthroline) rhodium(III) chloride]
- [DNA]/Δεapp (337 nm, [DNA] 0, [OCTBP] 2.26E−5): 0
- [DNA]/Δεapp (337 nm, [DNA] 1.30E−4, [OCTBP] 2.12E−5): 4.333E−7
- [DNA]/Δεapp (337 nm, [DNA] 1.70E−4, [OCTBP] 2.08E−5): 4.913E−7
- [DNA]/Δεapp (337 nm, [DNA] 2.46E−4, [OCTBP] 2.00E−5): 6.276E−7
- [DNA]/Δεapp (337 nm, [DNA] 2.81E−4, [OCTBP] 1.96E−5): 7.187E−7
- [DNA]/Δεapp (337 nm, [DNA] 3.80E−4, [OCTBP] 1.86E−5): 7.661E−7
- [DNA]/Δεapp (337 nm, [DNA] 4.53E−5, [OCTBP] 2.21E−5): 3.624E−7
